From the supplement of paper PMC11732987, “Enantioselective OTUD7B fragment discovery through chemoproteomics screening and high-throughput optimisation” (Communications Chemistry, 2025)
The other results are listed elsewhere or left out. The data scatter; read single values as rough.

Amino acid sequences for entries named in this document (tags omitted). A change or cut given only in a name is not applied to a line headed by its entry. Residues count along the entry.
UniProt Q96P47: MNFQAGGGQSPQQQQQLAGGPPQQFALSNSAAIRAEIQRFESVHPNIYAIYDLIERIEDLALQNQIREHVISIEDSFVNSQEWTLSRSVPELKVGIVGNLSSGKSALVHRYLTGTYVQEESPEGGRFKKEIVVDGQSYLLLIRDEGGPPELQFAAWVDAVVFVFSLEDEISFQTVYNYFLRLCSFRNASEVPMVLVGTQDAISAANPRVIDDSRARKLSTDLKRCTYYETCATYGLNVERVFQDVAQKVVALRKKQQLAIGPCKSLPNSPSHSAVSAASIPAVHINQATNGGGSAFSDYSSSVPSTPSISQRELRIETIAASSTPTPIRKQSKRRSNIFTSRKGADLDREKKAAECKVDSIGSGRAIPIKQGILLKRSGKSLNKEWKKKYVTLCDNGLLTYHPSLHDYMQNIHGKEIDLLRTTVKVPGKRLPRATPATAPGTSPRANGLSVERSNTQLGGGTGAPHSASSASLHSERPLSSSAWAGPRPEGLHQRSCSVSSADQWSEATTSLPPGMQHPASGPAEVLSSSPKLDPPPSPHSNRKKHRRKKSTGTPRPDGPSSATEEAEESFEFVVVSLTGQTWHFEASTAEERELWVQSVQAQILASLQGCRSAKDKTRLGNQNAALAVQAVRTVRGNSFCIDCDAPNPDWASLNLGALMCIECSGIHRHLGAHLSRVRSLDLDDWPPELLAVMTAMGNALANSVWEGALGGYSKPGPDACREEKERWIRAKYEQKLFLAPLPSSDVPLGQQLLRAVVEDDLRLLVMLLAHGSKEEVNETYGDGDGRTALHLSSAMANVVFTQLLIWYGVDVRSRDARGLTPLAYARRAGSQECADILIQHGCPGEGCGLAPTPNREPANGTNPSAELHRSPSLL
UniProt P51649: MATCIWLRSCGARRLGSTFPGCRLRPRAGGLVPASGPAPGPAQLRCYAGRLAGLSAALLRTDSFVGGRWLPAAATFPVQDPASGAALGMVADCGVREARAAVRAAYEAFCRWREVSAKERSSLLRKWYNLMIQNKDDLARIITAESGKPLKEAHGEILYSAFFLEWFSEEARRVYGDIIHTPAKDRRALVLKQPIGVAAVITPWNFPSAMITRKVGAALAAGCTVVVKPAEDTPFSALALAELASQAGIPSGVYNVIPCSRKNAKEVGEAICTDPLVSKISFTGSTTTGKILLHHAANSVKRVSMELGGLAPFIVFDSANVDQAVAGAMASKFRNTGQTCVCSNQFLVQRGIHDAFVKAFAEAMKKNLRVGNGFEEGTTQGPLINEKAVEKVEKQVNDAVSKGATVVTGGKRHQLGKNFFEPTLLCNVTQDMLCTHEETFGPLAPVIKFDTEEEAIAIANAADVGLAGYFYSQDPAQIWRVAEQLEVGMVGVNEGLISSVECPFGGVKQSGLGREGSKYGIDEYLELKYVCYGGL
UniProt Q9UJX3, whole entry, looked up: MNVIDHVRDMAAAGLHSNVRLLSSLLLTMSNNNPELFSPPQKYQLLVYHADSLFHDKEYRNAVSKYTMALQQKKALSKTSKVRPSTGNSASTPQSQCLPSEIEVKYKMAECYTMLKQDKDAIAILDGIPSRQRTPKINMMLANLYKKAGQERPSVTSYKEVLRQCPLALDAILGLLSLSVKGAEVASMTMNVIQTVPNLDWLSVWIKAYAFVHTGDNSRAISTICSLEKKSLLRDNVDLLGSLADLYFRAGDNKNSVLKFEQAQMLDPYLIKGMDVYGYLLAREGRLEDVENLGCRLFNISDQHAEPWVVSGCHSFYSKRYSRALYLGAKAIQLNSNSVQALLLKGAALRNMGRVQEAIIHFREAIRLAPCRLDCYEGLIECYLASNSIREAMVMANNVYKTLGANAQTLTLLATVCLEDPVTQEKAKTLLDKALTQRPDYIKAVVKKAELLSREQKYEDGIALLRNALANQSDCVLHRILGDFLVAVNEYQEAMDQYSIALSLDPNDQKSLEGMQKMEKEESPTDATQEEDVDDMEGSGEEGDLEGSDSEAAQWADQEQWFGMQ
UniProt P31749: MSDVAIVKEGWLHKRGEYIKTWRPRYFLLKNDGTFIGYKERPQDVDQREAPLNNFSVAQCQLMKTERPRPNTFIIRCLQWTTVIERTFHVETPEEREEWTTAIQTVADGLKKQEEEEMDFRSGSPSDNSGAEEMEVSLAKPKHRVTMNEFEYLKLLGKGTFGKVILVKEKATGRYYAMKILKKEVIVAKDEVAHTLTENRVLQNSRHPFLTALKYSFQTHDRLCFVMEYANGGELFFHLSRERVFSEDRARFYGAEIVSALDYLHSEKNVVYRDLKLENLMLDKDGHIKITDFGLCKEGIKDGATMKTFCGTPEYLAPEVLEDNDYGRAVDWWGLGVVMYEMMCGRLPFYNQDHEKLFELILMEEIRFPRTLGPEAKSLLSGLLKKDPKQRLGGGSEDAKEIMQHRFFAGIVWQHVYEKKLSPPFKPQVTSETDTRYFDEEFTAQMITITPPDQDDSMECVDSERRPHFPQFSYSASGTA
UniProt Q8N302: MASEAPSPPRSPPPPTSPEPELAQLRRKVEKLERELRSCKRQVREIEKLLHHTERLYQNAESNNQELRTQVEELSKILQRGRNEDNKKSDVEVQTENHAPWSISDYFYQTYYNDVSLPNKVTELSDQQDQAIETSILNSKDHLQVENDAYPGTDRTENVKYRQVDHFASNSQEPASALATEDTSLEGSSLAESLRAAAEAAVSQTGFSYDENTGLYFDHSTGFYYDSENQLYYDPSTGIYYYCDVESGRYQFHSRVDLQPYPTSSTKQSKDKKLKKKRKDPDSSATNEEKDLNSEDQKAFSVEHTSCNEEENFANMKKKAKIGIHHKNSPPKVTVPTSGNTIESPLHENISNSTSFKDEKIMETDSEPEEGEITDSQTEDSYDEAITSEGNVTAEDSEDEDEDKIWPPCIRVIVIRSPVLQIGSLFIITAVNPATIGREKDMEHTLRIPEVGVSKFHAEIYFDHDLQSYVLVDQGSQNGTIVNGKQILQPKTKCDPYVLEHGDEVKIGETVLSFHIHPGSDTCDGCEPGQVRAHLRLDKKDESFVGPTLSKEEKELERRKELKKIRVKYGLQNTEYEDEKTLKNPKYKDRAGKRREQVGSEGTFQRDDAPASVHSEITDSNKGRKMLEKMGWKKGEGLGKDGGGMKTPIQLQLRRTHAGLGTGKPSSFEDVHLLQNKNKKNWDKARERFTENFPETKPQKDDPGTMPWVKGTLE
UniProt Q02952, 1457-1482: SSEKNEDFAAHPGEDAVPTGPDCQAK
UniProt P78536, 398-432: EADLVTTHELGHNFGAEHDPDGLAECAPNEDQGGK
UniProt Q9UKA4: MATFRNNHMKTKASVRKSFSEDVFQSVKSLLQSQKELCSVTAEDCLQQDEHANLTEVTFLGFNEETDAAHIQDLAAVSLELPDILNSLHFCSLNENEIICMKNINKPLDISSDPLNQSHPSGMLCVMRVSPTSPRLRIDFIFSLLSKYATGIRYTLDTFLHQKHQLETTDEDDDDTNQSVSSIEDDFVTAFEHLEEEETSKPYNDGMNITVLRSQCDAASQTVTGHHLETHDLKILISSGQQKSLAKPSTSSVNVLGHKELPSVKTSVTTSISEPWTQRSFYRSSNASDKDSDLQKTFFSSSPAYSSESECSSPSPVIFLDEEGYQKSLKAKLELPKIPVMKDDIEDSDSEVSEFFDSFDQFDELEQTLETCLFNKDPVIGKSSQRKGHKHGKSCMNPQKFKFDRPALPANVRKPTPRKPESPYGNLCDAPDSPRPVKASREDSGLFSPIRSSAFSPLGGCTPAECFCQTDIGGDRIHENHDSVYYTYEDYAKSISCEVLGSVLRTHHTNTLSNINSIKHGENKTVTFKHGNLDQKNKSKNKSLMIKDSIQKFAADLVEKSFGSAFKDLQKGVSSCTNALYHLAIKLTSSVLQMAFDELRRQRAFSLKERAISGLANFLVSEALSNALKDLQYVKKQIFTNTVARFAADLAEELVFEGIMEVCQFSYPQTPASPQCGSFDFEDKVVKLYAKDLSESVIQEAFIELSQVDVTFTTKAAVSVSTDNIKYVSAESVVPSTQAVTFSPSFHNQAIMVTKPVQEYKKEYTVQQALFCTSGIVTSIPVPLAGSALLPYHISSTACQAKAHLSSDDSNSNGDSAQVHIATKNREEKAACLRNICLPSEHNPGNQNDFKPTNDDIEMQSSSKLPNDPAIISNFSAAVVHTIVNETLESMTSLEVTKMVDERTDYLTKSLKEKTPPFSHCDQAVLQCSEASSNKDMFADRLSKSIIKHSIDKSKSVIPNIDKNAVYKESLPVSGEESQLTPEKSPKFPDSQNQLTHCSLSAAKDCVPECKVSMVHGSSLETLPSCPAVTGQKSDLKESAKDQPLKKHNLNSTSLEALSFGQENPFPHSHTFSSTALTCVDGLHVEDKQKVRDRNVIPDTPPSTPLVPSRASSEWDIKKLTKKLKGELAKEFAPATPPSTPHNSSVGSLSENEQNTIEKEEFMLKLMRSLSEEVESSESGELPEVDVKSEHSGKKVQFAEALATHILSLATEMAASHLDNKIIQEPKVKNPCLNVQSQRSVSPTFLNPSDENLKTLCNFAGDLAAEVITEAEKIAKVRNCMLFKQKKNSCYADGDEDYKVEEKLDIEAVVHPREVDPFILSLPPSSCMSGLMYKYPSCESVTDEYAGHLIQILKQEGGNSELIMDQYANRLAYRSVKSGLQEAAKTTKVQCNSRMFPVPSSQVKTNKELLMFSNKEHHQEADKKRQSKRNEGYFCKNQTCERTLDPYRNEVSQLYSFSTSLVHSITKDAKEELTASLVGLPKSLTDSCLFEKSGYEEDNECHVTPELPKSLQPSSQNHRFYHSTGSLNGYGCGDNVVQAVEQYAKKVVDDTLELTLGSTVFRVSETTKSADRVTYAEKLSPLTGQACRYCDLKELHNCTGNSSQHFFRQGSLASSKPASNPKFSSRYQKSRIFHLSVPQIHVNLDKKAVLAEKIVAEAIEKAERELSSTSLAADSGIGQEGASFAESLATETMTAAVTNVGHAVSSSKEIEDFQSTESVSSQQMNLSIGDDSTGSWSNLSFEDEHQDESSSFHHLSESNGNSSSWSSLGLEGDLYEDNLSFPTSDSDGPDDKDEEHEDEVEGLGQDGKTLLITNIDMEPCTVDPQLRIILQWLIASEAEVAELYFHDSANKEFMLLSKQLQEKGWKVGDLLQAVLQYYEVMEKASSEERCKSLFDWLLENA
UniProt Q9UJX5, whole entry, looked up: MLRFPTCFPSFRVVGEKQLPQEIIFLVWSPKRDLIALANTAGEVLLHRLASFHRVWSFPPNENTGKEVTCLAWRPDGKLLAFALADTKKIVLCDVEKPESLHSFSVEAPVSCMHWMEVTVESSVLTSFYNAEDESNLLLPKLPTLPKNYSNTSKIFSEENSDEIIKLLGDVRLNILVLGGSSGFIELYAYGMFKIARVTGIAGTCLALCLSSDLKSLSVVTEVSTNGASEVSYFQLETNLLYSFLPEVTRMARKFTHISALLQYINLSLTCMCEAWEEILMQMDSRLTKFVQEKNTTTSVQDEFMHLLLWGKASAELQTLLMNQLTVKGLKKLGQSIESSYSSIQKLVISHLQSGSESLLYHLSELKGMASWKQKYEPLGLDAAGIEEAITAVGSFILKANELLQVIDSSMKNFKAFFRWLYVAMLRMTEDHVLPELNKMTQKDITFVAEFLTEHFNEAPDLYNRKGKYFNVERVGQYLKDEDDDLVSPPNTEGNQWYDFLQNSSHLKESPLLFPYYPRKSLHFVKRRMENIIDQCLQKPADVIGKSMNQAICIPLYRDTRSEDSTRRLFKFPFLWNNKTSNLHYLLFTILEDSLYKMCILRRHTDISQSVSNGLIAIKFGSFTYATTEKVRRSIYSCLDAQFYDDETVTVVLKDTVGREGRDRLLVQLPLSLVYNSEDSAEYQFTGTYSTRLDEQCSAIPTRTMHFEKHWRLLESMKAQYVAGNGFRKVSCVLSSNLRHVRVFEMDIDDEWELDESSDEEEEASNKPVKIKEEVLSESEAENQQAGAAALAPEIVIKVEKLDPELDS
UniProt P49189: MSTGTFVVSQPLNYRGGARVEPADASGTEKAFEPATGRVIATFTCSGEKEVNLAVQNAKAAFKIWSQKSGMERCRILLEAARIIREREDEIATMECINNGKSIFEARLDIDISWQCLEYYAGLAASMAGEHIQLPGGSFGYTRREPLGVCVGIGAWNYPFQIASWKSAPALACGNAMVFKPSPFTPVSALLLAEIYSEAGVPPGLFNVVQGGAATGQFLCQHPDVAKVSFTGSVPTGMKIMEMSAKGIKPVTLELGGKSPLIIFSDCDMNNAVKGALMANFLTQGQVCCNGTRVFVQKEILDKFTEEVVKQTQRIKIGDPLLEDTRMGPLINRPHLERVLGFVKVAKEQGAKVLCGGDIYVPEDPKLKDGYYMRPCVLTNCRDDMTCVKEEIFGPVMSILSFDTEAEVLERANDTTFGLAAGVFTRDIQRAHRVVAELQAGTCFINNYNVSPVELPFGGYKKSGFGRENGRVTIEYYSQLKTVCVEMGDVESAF

Experiments:
[1] = compound: ClCC(=O)N[C@@H]1CCCc2ccccc12; assay: log2 mean competition ratio of IA-DTB cysteine labelling (DMSO/compound) (log2 ratio); higher = stronger cysteine engagement by compound; details: treatment time: 4 h, cell line lysate: HEK293T
Experimental: (§1)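 IA-DTB competitive cysteine chemoproteomics in HEK293T RIPA lysate. Lysates were treated with compound 29 or 30 at 50 or 200 µM for 4 h, then IA-DTB (500 µM, 1 h), trypsin-digested, NeutrAvidin-enriched and analysed by diaPASEF. Competition ratio = intensity DMSO / intensity compound (n=4 treated, n=64 DMSO); binding: mean log2 CR ≥ 1 and p ≤ 0.05 plus QC filters. Target is the cysteine site.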

[2] = compound: ClCC(=O)N[C@H]1CCCc2ccccc12; assay: as above; details: treatment time: 4 h, cell line lysate: HEK293T
Experimental: as §1

| Target | log2 mean competition ratio ([1]; 50 µM) | log2 mean competition ratio ([1]; 200 µM) | log2 mean competition ratio ([2]; 50 µM) | log2 mean competition ratio ([2]; 200 µM) |
| --- | --- | --- | --- | --- |
| AGAP3 C263 (UniProt Q96P47) | -0.228 | 0.053 | 0.734 | 0.364 |
| AKAP1 C64 (UniProt Q92667) | -0.346 | 0.327 | -0.319 | 0.149 |
| ALDH5A1 C110 (UniProt P51649) | 0.332 | -0.0894 | 0.571 | 0.0759 |
| ALDH5A1 C272 (UniProt P51649) | -0.163 | -0.0812 | -0.0507 | -0.00771 |
| ANAPC7 C295 (UniProt Q9UJX3) | 0.17 | 0.0379 | -0.0953 | 0.126 |
| ACTN1 C480 | 0.647 | 0.031 | 0.981 | 0.0781 |
| AKT1 C60 (UniProt P31749) | 1 | 0.119 | 0.26 | 0.0843 |
| AGGF1 C494 (UniProt Q8N302) | -0.217 | -0.314 | -0.416 | -0.199 |
| AGBL5 C377 | 0.08 | -0.164 | -0.0114 | -0.509 |
| AHR C639 | -0.345 | 0.19 | 0.0214 | 0.22 |
| AKAP12 C1479 (UniProt Q02952) | -0.174 | -0.193 | 0.211 | -0.201 |
| ADAM17 C469 (UniProt P78536) | -0.124 | 0.214 | -0.0653 | 0.132 |
| ADAM17 C423 (UniProt P78536) | -0.49 | -0.116 | -0.349 | -0.26 |
| ANK3 C1409 (UniProt Q12955) | -0.0806 | -0.0339 | -0.145 | 0.114 |
| ALX1 C71 | -0.0188 | 0.214 | 0.123 | -0.378 |
| ACIN1 C546 | -0.153 | -0.333 | 0.28 | -0.0905 |
| AKAP11 C1290 (UniProt Q9UKA4) | -0.21 | -0.114 | -0.352 | -0.0699 |
| ANAPC4 C697 (UniProt Q9UJX5) | -0.193 | -0.133 | -0.198 | -0.191 |
| ACIN1 C691 | -0.323 | -0.00895 | -0.0777 | -0.092 |
| ALDH9A1 C355 (UniProt P49189) | -0.188 | -0.235 | -0.111 | -0.232 |
| ALDOA C202 | -0.184 | 0.667 | 0.11 | 0.501 |
| AKAP9 C2765 (UniProt Q99996) | 0.183 | 0.128 | -0.296 | 0.254 |
| AHNAK C1833 (UniProt Q09666) | -0.128 | -0.281 | 0.133 | -0.166 |

Shown as tab-separated lines: entries from further up.
Target	log2 mean competition ratio ([1]; 50 µM)	log2 mean competition ratio ([1]; 200 µM)	log2 mean competition ratio ([2]; 50 µM)	log2 mean competition ratio ([2]; 200 µM)
ACTN1 C480	0.647	0.031	0.981	0.0781
AKT1 C60 (UniProt P31749)	1	0.119	0.26	0.0843
